Publication PMC3466278
Results are given in words; binding and its absence hold for the method and conditions named. Binding seen in cells or lysates may run through a third protein. Some results given as binding are weak or reduced against the parent protein; the word gives no strength. Tags and fused reporters may be left off the sequences shown.

Target: T1, rat AT2 receptor tagged C-terminally with GFP (rat) (UniProt P35351)
T1 sequence: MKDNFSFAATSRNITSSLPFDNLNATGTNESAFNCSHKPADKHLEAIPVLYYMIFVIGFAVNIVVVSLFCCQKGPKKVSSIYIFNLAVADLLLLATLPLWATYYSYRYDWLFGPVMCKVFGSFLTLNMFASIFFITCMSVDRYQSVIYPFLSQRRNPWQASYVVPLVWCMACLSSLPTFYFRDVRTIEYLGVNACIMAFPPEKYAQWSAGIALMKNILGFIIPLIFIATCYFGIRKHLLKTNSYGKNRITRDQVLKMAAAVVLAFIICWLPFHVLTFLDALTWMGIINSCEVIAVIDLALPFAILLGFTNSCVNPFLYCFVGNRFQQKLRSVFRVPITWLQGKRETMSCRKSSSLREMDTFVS
Assay: co-IP; AT2-GFP and Myc-AT2 constructs (5 µg each) transiently co-transfected into HEK293 cells; lysed in RIPA buffer two days later; immunoprecipitated with a polyclonal anti-GFP antibody, blot probed with a monoclonal anti-Myc antibody; reducing SDS-PAGE

B1: rat AT2 receptor tagged N-terminally with Myc (receptor, UniProt P35351 1-363)
chain: MKDNFSFAATSRNITSSLPFDNLNATGTNESAFNCSHKPADKHLEAIPVLYYMIFVIGFAVNIVVVSLFCCQKGPKKVSSIYIFNLAVADLLLLATLPLWATYYSYRYDWLFGPVMCKVFGSFLTLNMFASIFFITCMSVDRYQSVIYPFLSQRRNPWQASYVVPLVWCMACLSSLPTFYFRDVRTIEYLGVNACIMAFPPEKYAQWSAGIALMKNILGFIIPLIFIATCYFGIRKHLLKTNSYGKNRITRDQVLKMAAAVVLAFIICWLPFHVLTFLDALTWMGIINSCEVIAVIDLALPFAILLGFTNSCVNPFLYCFVGNRFQQKLRSVFRVPITWLQGKRETMSCRKSSSLREMDTFVS
With B1 the binding was “binds”.
